Values quoted from earlier work, collected in patent US20070082017A1, “Lipid compositions and methods of use” (priority 2004, published 2007).
At least one compound was matched to its structure with a doubt left.

Settings: cited from earlier work

Row | SMILES | AGGREGATION NUMBER | CMC [mM]
1 | C[C@H](CCC(=O)NCCC[N+](C)(C)CC(O)CS(=O)(=O)[O-])[C@H]1CC[C@H]2[C@@H]3[C@H](O)C[C@@H]4C[C@H](O)CC[C@]4(C)[C@H]3C[C@H](O)[C@]12C (stereo partly drawn) [CHAPSO] | 11 | 8
2 | CCCCCCCCCCCCCCCC[n+]1ccccc1 [Cetylpyridinium Chloride] |  | 0.90
